According to patent US20240226083A9, “MEDICAMENT FOR TREATMENT AND/OR PROPHYLACTIC TREATMENT OF CANCERS” (Belina Pharma AB, priority 2019, published 2024):

Test system: patients with kidney cancer
Description: Both peri- and post-diagnostic antihistamine use was analyzed, using Cox regression models, as well as different subgroups of patients with regard to age, gender (as a proxy for sex) and tumor status.
Material and methods Linking the Cancer Registry with the Drug Prescription Registry and Cause of Death Registry the survival of over 500 000 cancer patients with cancer in the breast-, prostate, ventrikel, pancreas, kidney, colo-rectal, lung, uterus, ovary, brain, melanoma, lymph gland and bone marrow was studied between 2005-2014.
Use of the six major antihistamines was established using the Swedish Prescribed Drug Register, a record of all dispensed prescribed pharmaceuticals in Sweden since July 1st 2005. To be included in the registry at least 2 weeks of prescription is required. […] Causes of death were obtained from the Swedish Cause of Death Register, a database where all deaths have been recorded since 1952. […]
We analyzed both the peri- and cumulative post-diagnostic use of antihistamines among melanoma patients. […]
For the cumulative post-diagnostic antihistamine use analysis, mortality rates for antihistamine users were compared to those of non-users through a Cox regression model allowing for time varying covariates, and survival time was measured in years since diagnosis. […] The impact of the cumulative DDDs was assessed after log transformation of the DDDs plus one3. […]

Clc1ccc2c(c1)CCc1cccnc1C2=C1CCNCC1 [desloratadine]
5 year survival chance increased by (kidney cancer) (kidney cancer, baseline 5 year survival about 75% 2016, FIG. 1): 30% | effect of use on kidney cancer survival (users vs non-users, in words): consistently beneficial effect
